Measured values from patent publication US20260327250A1, “3-ETHYLAMINO-INDOLE DIMERS AS SEROTONERGIC AGENTS USEFUL FOR THE TREATMENT OF DISORDERS RELATED THERETO” (MINDSET PHARMA INC., priority 2022, published 2026).
Structures can show the parent of a compound that is named as a salt.

System: Caco-2 cell monolayers
Assay: Assessment of Caco-2 cell monolayer integrity
Assay type: in vitro ADME
Settings: Lucifer Yellow; for LY LeakageA−B: A−B; for LY LeakageB−A: B−A

Row | SMILES | LY LeakageA−B [%] | LY LeakageB−A [%]
1 | CN(C)CCc1c[nH]c2cccc(OC(=O)CCCC(=O)Oc3cccc4[nH]cc(CCN(C)C)c34)c12 [Compound I-24, Bis(3-(2-(dimethylamino)ethyl)-1H-indol-4-yl) glutarate] | 0.75 | 0.66
2 | COc1cc2nc(N3CCN(C(=O)c4ccco4)CC3)nc(N)c2cc1OC [Prazosin] | 0.39 | 0.41
3 | C[C@H]1O[C@@H](O[C@H]2[C@@H](O)C[C@H](O[C@H]3[C@@H](O)C[C@H](O[C@H]4CC[C@@]5(C)[C@H](CC[C@@H]6[C@@H]5C[C@@H](O)[C@]5(C)[C@@H](C7=CC(=O)OC7)CC[C@]65O)C4)O[C@@H]3C)O[C@@H]2C)C[C@H](O)[C@@H]1O [Digoxin] | 0.53 | 0.46
4 | CC(C)NCC(O)COc1cccc2ccccc12 (stereo not shown) [Propranolol] | 0.50 | 0.43
5 | CC(C)N(CCc1c[nH]c2cccc(OC(=O)CCCC(=O)Oc3cccc4[nH]cc(CCN(C(C)C)C(C)C)c34)c12)C(C)C [Compound I-37, Bis(3-(2-(diisopropylamino)ethyl)-1H-indol-4-yl) glutarate dihydrochloride] | 0.45 | 0.64
